In patent US20170101474A1 (FORMUREX, published 2017):
No constants are given. Whether binding was seen depends on the method and setting. Some results given as binding are weak or reduced against the parent protein; the word gives no strength.

Tests used:
Recombinant human EGFR [1] = molecular target: T1, Recombinant human EGFR (human, UniProt P00533 25-645, limits assumed); assay: SPR, EGFR immobilized (FIG. 8b)
T1 construct: Immobilized by amine coupling on a carboxymethyl dextran SPR chip; also called epidermal growth factor receptor; surface-immobilized EGFR

Recombinant human EGFR [2] = molecular target: T1, Recombinant human EGFR; assay: SPR, EGFR immobilized on the chip, Pep11 injected at several concentrations
Recombinant human EGFR [3] = molecular target: T1, Recombinant human EGFR; assay: SPR, EGFR immobilized
[4] = molecular target: HER2 on MDA-MB-361 and ZR-75-1 cells (human) (UniProt P04626); assay: flow cytometry, FITC-labelled peptide 10 µM
[5] = molecular target: HER2 on MDA-MB-361 and ZR-75-1 cells (human) (UniProt P04626); assay: flow cytometry, FITC-labelled peptide 10 µM, MDA-MB-361 and ZR-75-1 cells
[6] = molecular target: HER2 on MDA-MB-361 and ZR-75-1 cells (human) (UniProt P04626); assay: confocal microscopy, FITC-labelled peptide 10 µM

Row | Binder | binding (Recombinant human EGFR [1]) | binding (Recombinant human EGFR [2]) | binding (Recombinant human EGFR [3]) | binding [4] | binding [5] | binding [6]
1 | VGYDTGLRAPNSVGSTKQ [HER2-PEP7] | – | – | – | binds | binds | binds
2 | QYTFGSNEPARSLGTDNGP [HER2-PEP11] | – | – | – | binds | binds | binds
3 | QKGLSGVSNPARNGTEYTV [HER2-PEP16] | – | – | – | binds | binds | binds

The next lines start with the values.

Row | binding (Recombinant human EGFR [1]) | binding (Recombinant human EGFR [2]) | binding (Recombinant human EGFR [3]) | binding [4] | binding [5] | binding [6] | Binder
4 | binds | binds | – | – | – | – | WSGENGPGFYDYEA [Pep11]
5 | – | – | binds | – | – | – | AEYDFYGPGNEGSW (also called No. 24) [Pep24]
6 | – | – | – | binds | binds | binds | QNYIFSGVSKARLGTDYTV [HER2-PEP20]
7 | – | – | – | binds | binds | binds | PGNDTGLSRAPENSGFTYQ [HER2-PEP21]
